Patent publication US20040048790A1, “Inducing cellular immune responses to p53 using peptide and nucleic acid compositions” (priority 1999, published 2004)
At least one peptide structure holds a part that was inferred or is arguable (an end, a ring closure or a residue).

Tests used:
[1] = tested on: target cells pulsed with wild-type peptide; assay: CTL recognition of targets pulsed with the wildtype peptide (51Cr release); format: cell-based, human; details: for CTL recognition of the wildtype peptide: CTL induced with analog peptide; for CTL Wild-type: Number of donors yielding a positive response/total tested, Table XXVIIb
[2] = tested on: 0.221A2.1 cell line, peptide-loaded target; assay: Primary in vitro CTL induction, 51Cr release against targets pulsed with the induction peptide; details: for CTL Peptide: Number of donors yielding a positive response/total tested, Table XXVIIb
Saos-2/175 = assay: CTL lysis of Saos-2/175 transfected cell line; details: expresses p53

Compound	CTL recognition of the wildtype peptide [1]	CTL Wild-type [1]	CTL Peptide [2]	CTL lysis of Saos-2/175 transfected cell line (Saos-2/175)	wells with measurable CTL activity / positive response ([2]; normal donor, individual wells of 48-well induction culture, positive = specific lysis 10% or higher)	lytic activity after expansion of the culture ([2]; reassayed two weeks later against the induction peptide)
CC(C)C[C@H](NC(=O)[C@H](C)N)C(=O)N1CCC[C@H]1C(=O)N1CCC[C@H]1C(=O)N[C@H](C(=O)N[C@@H](C)C(=O)N1CCC[C@H]1C(=O)N[C@H](C(=O)O)C(C)C)C(C)C [p53.69L2V8]	demonstrated recognition of the wildtype peptide	1/3	2/4			
CSCC[C@H](NC(=O)[C@H](CCCCN)NC(=O)[C@H](CC(N)=O)NC(=O)[C@H](CC(C)C)NC(=O)[C@H](C)N)C(=O)N[C@@H](Cc1ccccc1)C(=O)N[C@@H](CS)C(=O)N[C@@H](CCC(N)=O)C(=O)N[C@H](C(=O)O)C(C)C [p53.129V9]			0/1			
CC(C)C[C@H](NC(=O)[C@H](CCC(N)=O)NC(=O)[C@H](CS)NC(=O)[C@H](Cc1ccccc1)NC(=O)[C@H](CC(C)C)NC(=O)[C@@H](N)CCCCN)C(=O)N[C@@H](C)C(=O)N[C@@H](CCCCN)C(=O)N[C@H](C(=O)O)C(C)C [p53.132L2V9]		1/3	2/3			
CSCC[C@H](NC(=O)[C@@H](N)CCCCN)C(=O)N[C@@H](Cc1ccccc1)C(=O)N[C@@H](CS)C(=O)N[C@@H](CCC(N)=O)C(=O)N[C@@H](CC(C)C)C(=O)N[C@@H](C)C(=O)N[C@@H](CCCCN)C(=O)N[C@H](C(=O)O)C(C)C [p53.132V9]		0/2	1/3			
CSCC[C@H](NC(=O)[C@@H](N)CO)C(=O)N1CCC[C@H]1C(=O)N1CCC[C@H]1C(=O)N1CCC[C@H]1C(=O)NCC(=O)N[C@H](C(=O)N[C@@H](CCCNC(=N)N)C(=O)N[C@H](C(=O)O)C(C)C)[C@@H](C)O [p53.149M2]	All the CTLs generated recognized the wildtype peptide	2/4	2/4	able to lyse the Saos-2/175 transfected cell line	Six individual wells met the criteria for a positive response	the cells cultured in one of the wells maintained that activity upon expansion of the population
CC(C)C[C@H](NC(=O)[C@@H](N)C(C)C)C(=O)N[C@H](C(=O)N1CCC[C@H]1C(=O)N[C@@H](Cc1ccc(O)cc1)C(=O)N[C@@H](CCC(=O)O)C(=O)N1CCC[C@H]1C(=O)N1CCC[C@H]1C(=O)N[C@@H](CCC(=O)O)C(=O)N[C@H](C(=O)O)C(C)C)C(C)C [p53.216L2]		1/1	1/1			
CC[C@H](C)[C@H](N)C(=O)N[C@@H](CC(C)C)C(=O)N[C@@H](CC(C)C)C(=O)N[C@@H](CCC(=O)O)C(=O)N[C@@H](CC(=O)O)C(=O)N[C@@H](CO)C(=O)N[C@@H](CO)C(=O)NCC(=O)N[C@@H](CC(N)=O)C(=O)N[C@@H](CC(C)C)C(=O)N[C@H](C(=O)O)C(C)C [p53.255L2V11]		0/3	1/3			
